In publication PMC4001326:
For part of these data: A negative result means that nothing was seen under these conditions. At least one verdict rests on a figure or table, not on a statement of the authors. For part of these data: The exact form of at least one protein or probe is not confirmed.

What was measured:
[1] = test system: pol V Mut E38K/K72R (Escherichia coli (pol V from strain RW644)); assay: fluorescence anisotropy; conditions: 20 mM Tris-HCl pH 7.5, 25 mM Na glutamate, 8 mM MgCl2, 8 mM DTT, 4% glycerol, 0.1 mM EDTA, 37 C, 50 nM labeled hairpin, 500 uM ATP or ATPgS (titrations to 750 uM), recombinant protein, protein details: His (pol V), label: fluorescein (internal dT), folded or branched DNA
[2] = test system: pol V Mut WT (UmuD'2C-RecA-ATP) (Escherichia coli (pol V from strain RW644)); assay: fluorescence anisotropy; conditions: 20 mM Tris-HCl pH 7.5, 25 mM Na glutamate, 8 mM MgCl2, 8 mM DTT, 4% glycerol, 0.1 mM EDTA, 37 C, 50 nM labeled hairpin, 500 uM ATP or ATPgS (titrations to 750 uM), recombinant protein, protein details: His (pol V), label: fluorescein (internal dT), folded or branched DNA
RecA E38K/K72R E39K,K73R = RecA E38K/K72R E39K,K73R (UniProt P0A7G6); assay: pull-down (ssDNA resin); conditions: ATPgS or ATP; 5' amino-C12 linked to cyanogen bromide-activated Sepharose; 20 mM Tris-HCl pH 7.5, 25 mM Na glutamate, 8 mM MgCl2, 8 mM DTT, 4% glycerol, 0.1 mM EDTA, 37 C; 50 nM labeled hairpin; 500 uM ATP or ATPgS (titrations to 750 uM); recombinant protein; single-stranded DNA
[3] = target: RecA E38K/ΔC17 E39K,del18-18 (UniProt P0A7G6); assay: pull-down (ssDNA resin); conditions: ATPgS or ATP; 5' amino-C12 linked to cyanogen bromide-activated Sepharose; 20 mM Tris-HCl pH 7.5, 25 mM Na glutamate, 8 mM MgCl2, 8 mM DTT, 4% glycerol, 0.1 mM EDTA, 37 C; 50 nM labeled hairpin; 500 uM ATP or ATPgS (titrations to 750 uM); recombinant protein; residues 2-336; single-stranded DNA
[4] = target: RecA WT (Escherichia coli) (UniProt P0A7G6); assay: pull-down (ssDNA resin); conditions: ATPgS or ATP; 5' amino-C12 linked to cyanogen bromide-activated Sepharose; 20 mM Tris-HCl pH 7.5, 25 mM Na glutamate, 8 mM MgCl2, 8 mM DTT, 4% glycerol, 0.1 mM EDTA, 37 C; 50 nM labeled hairpin; 500 uM ATP or ATPgS (titrations to 750 uM); recombinant protein; single-stranded DNA
[5] = no nucleotide, fluorescein-dT replacing T17 (from parent S1)
[6] = 500 uM ATP, fluorescein-dT replacing T44 (from parent S5)
[7] = no nucleotide, fluorescein-dT replacing T44 (from parent S5)

AGAGCAGTTAGCGCATTCAGCTCATACTGCTGAATGCGCTAACTGC [Fluorescein 3 nt oh HP]
binding result ([1]; ATP, no appreciable binding, though DNA synthesis implies some, fluorescein-dT replacing T17 (from parent S1)): no binding | binding result ([1]; ATPgS, fluorescein-dT replacing T17 (from parent S1)): binds | binding result [1, 5]: no binding | binding result ([2]; ATP, fluorescein-dT replacing T17 (from parent S1)): no binding | binding result [2, 5]: no binding

CGAAACAGGAAAGCAGTTAGCGCATTCAGCTCATACTGCTGAATGCGCTAACTGC [Fluorescein 12 nt oh HP]
binding result [1, 6]: no binding | binding result [1, 7]: no binding | binding result [2, 6]: no binding | binding result [2, 7]: no binding

TTTTTTTTTTTTTTTTTTTTTTTTTTTTTTTTTTTTTTTTTTTTT [Amino C12-linked 45mer]
binding result (RecA E38K/K72R E39K,K73R): binds | binding result [3]: binds | binding result [4]: binds
